From PubChem BioAssay AID1458 (National Center for Advancing Translational Sciences (NCATS), 2008)
Hit rate of the full screen: of about 210,000 compounds, about 5,900 (2.8%) were called active. Roughly 5% stayed inconclusive and do not appear here. Calls come from the whole dose curve; as a rule, active = well fitted activation curve with a large enough effect; inconclusive = small, poorly fitted or top-dose-only effect; inactive = no such curve, though single readings can be large or run the other way. Only a part is listed here, and it is no random draw. The source gives no active or inactive call for entries shown without one.

test: qHTS Assay for Enhancers of SMN2 Splice Variant Expression; settings: HEK293 SMN2-luciferase splicing reporter, luminescence, 30-36 h; activity change, positive = activation: at 46.1 µM (top of the series) unless noted; note: nearly all actives have a fitted effect of over 55% in size; for activity change, positive = activation: % of control where 0% means no effect
Method in brief: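 HEK293 cells carry an SMN2 minigene-luciferase reporter in which exon 7 inclusion puts luciferase in frame. Cells were seeded at 2000 cells/well, attached for 10-12 hours, then exposed to compounds for 30-36 hours at 37C before ONE-Glo luminescence.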
Potency is the fitted concentration of half-maximal effect.

| Compound | activity change, positive = activation | Potency |
| --- | --- | --- |
| CCOC(=O)c1ccc(Oc2c(C)oc3cc(OS(C)(=O)=O)ccc3c2=O)cc1 | -49.3% | – |
| Cc1cc(C)c(C2=NOC3C4CCC(C4)C23)c(C)c1 (centres undefined) | inactive: -34.4% | – |
| N#CC(C(N)=O)=C1CCC2(CC1)OCCCCO2 | 22.9% | – |
| Cc1cccc(C(=O)NCCc2csc(C)n2)c1 | – | active: 1.58 µM |
| O=C(CNC(=O)C1CCCCC1)Nc1ccc(Cl)cc1 | – | active: 11.2 µM |
| CCOC(=O)c1c(NC(=O)CSc2nncs2)sc(C)c1-c1ccccc1 | -54.1% | – |
| CCOC(=O)c1cnc(-c2ccccc2)nc1N | – | active: 7.08 µM |
| O=C(CC1CCCCC1)c1c(O)c2ccccc2oc1=O | -58.3% | – |
| CCSc1ncc(/C=N/Nc2ccc(Cl)cc2)n1C | – | active: 20 µM |
| COc1ccc(S(=O)(=O)Nc2ccc(F)cc2)cc1N(C)S(=O)(=O)c1ccc(Cl)cc1 | -51% | – |
| O=C(Nc1nc2ccccc2[nH]1)c1ccccc1F | -48.7% | – |
| CC1=CC(C2CC(=O)N(c3ccccc3C)C2=O)CC2C(=O)N(c3ccccc3C)C(=O)C12 (centres undefined) | 7.04% | – |
| O=c1c2ccccc2cnn1CCOc1ccccc1 | -71.2% | – |
| COC(=O)C(NC(C)=O)(Nc1ccccc1)C(=O)OC | 46.3% | – |
| Cc1cc(C)c2nc(NNC(=O)c3ccc(S(=O)(=O)N4CCc5ccccc5C4)cc3)sc2c1 | inactive: -116% | – |
| COc1ccccc1NC(=O)c1ccc(NC(=O)c2cc3c(s2)CCC3)cc1 | inactive: -33.5% | – |
| COc1cccc(CNC(=O)c2ccccc2N)c1 | 40.6% | – |
| Cc1ccc(C(=O)OCn2ncc(Cl)c(Cl)c2=O)cc1 | -74.1% | – |
| COc1ccc2nc(N=Nc3c(O)ccc4ccccc34)sc2c1 | -91.1% | – |
| COc1ccc(NC2=CC(=O)CC(c3ccccc3)C2)c(OC)c1 (centres undefined) | 16% | – |
| CCOc1ccc(-n2cnnn2)cc1S(=O)(=O)NCCc1ccc(OC)c(OC)c1 | 30.2% | – |
| NS(=O)(=O)c1ccc(CNC(=S)NCc2ccc(Cl)cc2)cc1 | inactive: -30.4% | – |

Fetched by compound from the list above (2):

| Compound | activity change, positive = activation | Potency |
| --- | --- | --- |
| CCOC(=O)c1ccc(Oc2c(C)oc3cc(OS(C)(=O)=O)ccc3c2=O)cc1 | -49.3% | – |
| COc1cccc(CNC(=O)c2ccccc2N)c1 | 40.6% | – |

Additional structures follow:

| Compound | activity change, positive = activation | Potency |
| --- | --- | --- |
| COc1cc(C(=O)N/N=C/c2ccc(OC)c(CN3CCN(c4ccc(F)cc4)CC3)c2)ccc1O | -18.2% | – |
| O=C(Nc1ccc(Cl)c(Cl)c1)C1CC(=O)N(c2ccc(Br)cc2)C1 (centres undefined) | inactive: -78.8% | – |
| COc1ccc(S(=O)(=O)N2CCCCC2)cc1NC(=O)c1ccc([N+](=O)[O-])o1 | inactive: -40.1% | – |
| O=C(CSc1nnc2c(n1)[nH]c1ccccc12)Nc1ccc2c(c1)OCO2 | inactive: -47.8% | – |
| Cc1cccc(NC(=O)c2cnc3scc(C)n3c2=O)c1 | – | active: 12.6 µM |
| CN(C)c1cccc(C(=O)OCC(=O)N(Cc2ccccc2)C2CCS(=O)(=O)C2)c1 (centres undefined) | 104% | – |
| CCCCOC(=O)Nc1ccc2c(C)cc(=O)oc2c1 | – | active: 11.2 µM |
| O=C(NC(=O)c1ccccc1)Nc1ccc(-c2cc(C(F)(F)F)nn2-c2ccccc2)cc1 | 21.2% | – |
| CC(C)C(c1nnnn1C1CCCC1)N(C)C1CCCCC1 (centres undefined) | 38.4% | – |
| COc1ccc(/C=N/Nc2ncc(C(F)(F)F)cc2Cl)cc1OC | 34.7% | – |
| Cc1cc(NCCCn2ccnc2)n2nc(C)c(-c3ccc(Cl)cc3)c2n1 | -34.3% | – |
| CCc1c(C)sc(NC(=O)c2ccco2)c1C(=O)N1CCCCC1 | 25.2% | – |
| Cc1ccc2nsnc2c1N(S(C)(=O)=O)S(C)(=O)=O | 32.2% | – |
| COC(=O)C1SCC2C(=O)N(Cc3ccccc3)CC(=O)N21 (centres undefined) | inactive: 9.38% | – |
| COc1ccccc1N1CCN(C(=O)c2ccoc2C)CC1 | 32.4% | – |
| COc1cccc(N2CCN(Cc3nc(N)nc(N4CCCc5ccccc54)n3)CC2)c1 | 32.4% | – |
| Cc1n[nH]c(C)c1S(=O)(=O)N1CCCC(C(=O)NCc2ccc(F)cc2)C1 (centres undefined) | -39.4% | – |
| C/C(Cl)=C/Cc1c(C)[nH]c2ccc(C)cc2c1=O | 32.9% | – |
| CCCc1nnc(SCc2ccc(OC)cc2)n1N | 36.6% | – |
| CC1CCCC(C)N1C(=O)Cn1cc(/C=C2/C(=O)Nc3ccccc32)c2ccccc21 (centres undefined) | inactive: -15.8% | – |
| Cc1cc(NC(=O)c2ccccc2)ncc1NC(=O)c1ccco1 | – | active: 8.91 µM |
| COc1ccc(-c2cc(=NC(CC(C)C)C(=O)O)c3cc(C)ccc3o2)cc1 (centres undefined) | – | active: 11.2 µM |

A different layout for four compounds above.
CC1=CC(C2CC(=O)N(c3ccccc3C)C2=O)CC2C(=O)N(c3ccccc3C)C(=O)C12 (centres undefined)
  activity change, positive = activation: 7.04%
O=c1c2ccccc2cnn1CCOc1ccccc1
  activity change, positive = activation: -71.2%
COC(=O)C(NC(C)=O)(Nc1ccccc1)C(=O)OC
  activity change, positive = activation: 46.3%
Cc1cc(C)c2nc(NNC(=O)c3ccc(S(=O)(=O)N4CCc5ccccc5C4)cc3)sc2c1
  activity change, positive = activation: inactive: -116%

Remaining list, next part

| Compound | activity change, positive = activation | Potency |
| --- | --- | --- |
| O=C(COC(=O)c1ccccc1Cc1ccccc1)Nc1ccc(SC(F)F)cc1 | 57.9% | – |
| CCOC(=O)c1ccc(NC(=O)N2CCc3ccccc32)cc1 | – | active: 15.8 µM |
| COc1cccc(-c2cc(=O)c3ccc(OC)cc3o2)c1 | – | active: 12.6 µM |
| COc1nc(NCCO)nc(Nc2ccccc2F)n1 | 60.5% | – |
| O=C(Oc1c(Br)cc(Br)c2cccnc12)N1CCCCC1 | -50.5% | – |
| Cn1cc(C(=O)Nc2ccc3c(c2)CCC3)cn1 | 58.7% | – |
| O=C(OCC(=O)N1CCN(c2ccccc2)CC1)C1=COCCO1 | 36% | – |
| COCCn1nnnc1C(c1cc2cc(C)ccc2[nH]c1=O)N1CCN(C2CCCCC2)CC1 (centres undefined) | 30.1% | – |
| COc1ccc(S(=O)(=O)c2cnc3ccc(Cl)cc3c2N2CCCCC2C)cc1 (centres undefined) | inactive: -40.3% | – |
| Cc1nn(Cc2ccc(Cl)c(Cl)c2)c(C)c1NC(=O)c1noc2c1CCCCC2 | inactive: -46.5% | – |
| O=C(N/N=C/c1cn(-c2cccs2)nc1-c1ccccc1)c1ccccc1O | -64.8% | – |
| Cc1nc(CN(C)C(=O)c2cc(COc3ccc4ncccc4c3)on2)cs1 | inactive: -51% | – |
| OC(COc1ccc2cc(Br)ccc2c1)CN1CCN(c2ccccn2)CC1 (centres undefined) | -53.1% | – |
| Cc1ccc(NC(=O)c2ccoc2C)cc1C | – | active: 15.8 µM |
| Cc1ccc2nc(SCC(=O)O)nc(C)c2c1 | 47.7% | – |
| CCOC(=O)CSc1nc2c([nH]c3ccccc32)c(=O)n1C | 36.1% | – |
| CCOC(=O)Cc1nnc(NC(=O)c2ncn[nH]2)s1 | 24.2% | – |
| COc1ccc(N2CCN(C(=O)c3ccc(NS(=O)(=O)c4cccs4)cc3)CC2)cc1 | -58.5% | – |
| CC1=C(C(=O)OCCNC(=O)c2ccccc2O)C(c2ccccc2[N+](=O)[O-])C(C(=O)OCC2CCCO2)=C(C)N1 (centres undefined) | -38.2% | – |
| CC(C)(C)OC(=O)N/N=C/c1c[nH]c2ccccc12 | 45.3% | – |
| Cc1cc(C)c(NC(=O)Cn2cnc3c(oc4ccccc43)c2=O)c(C)c1 | -14% | – |
| CC(/C=N/NC(=O)c1cccs1)=C\c1ccco1 | – | active: 11.2 µM |

| Compound | activity change, positive = activation | Potency |
| --- | --- | --- |
| O=P(COCCCCCOCP(=O)(c1ccccc1)c1ccccc1)(c1ccccc1)c1ccccc1 | inactive: -58.9% | – |
| COc1ccc([N+](=O)[O-])cc1NC(=O)Nc1ccccc1 | -46.5% | – |
| O=C(NC1=NCCS1)Nc1ccccc1 | – | active: 10 µM |
| CCOc1ccc(OCCSc2nnnn2-c2ccccc2)cc1 | -51% | – |
| CCN(C(=O)c1cc(Cl)ccc1OC)c1ccccc1C | -33.9% | – |
| Cc1nc2ccc(NC(=O)N(C)c3ccccc3)cc2s1 | – | active: 22.4 µM |
| S=C(Nc1ccc(Cl)cc1)NC1CC2CCCC(C1)N2C1CC1 (centres undefined) | inactive: -55% | – |
| COc1ccc(-c2csc(Cc3nc(O)cs3)n2)cc1 | – | active: 11.2 µM |
| O=C(c1ccccc1)C(CCC(CN1CCOCC1)C(=O)c1ccccc1)CN1CCOCC1 (centres undefined) | -97.7% | – |
| C=CCn1c(SCc2c(C)noc2C)nc2sc3c(c2c1=O)CCCCC3 | -48.6% | – |
| O=C(OCc1cnc(Cl)s1)c1cccc(Cl)c1 | 13% | – |
| CCn1cc(C(=O)N2CCN(c3ccccc3F)CC2)c(=O)c2cc(S(=O)(=O)N(C)C)ccc21 | 34.6% | – |
| Cc1nc2c(-c3ccccc3)c[nH]n2c(=O)c1Cc1ccccc1 | inactive: -60% | – |
| O=C(O)c1c2c(nc3ccccc13)/C(=C/c1ccc(O)cc1)CC2 | inactive: -53.1% | – |
| S=c1[nH]c(-c2ccccc2)cn1/N=C/c1ccc(Br)cc1 | 36.7% | – |
| CCc1cc(C(=O)Nc2cnn(Cc3ccccc3C)c2)no1 | – | active: 17.8 µM |
| COc1ccc(C2Nc3ccccc3C(=O)N2c2ccc(C)cc2)cc1Cn1cc([N+](=O)[O-])cn1 (centres undefined) | – | active: 20 µM |
| COc1ccc(NC(=O)CN2c3cccc4cccc(c34)S2(=O)=O)c(OC)c1 | -22.2% | – |
| COc1ccccc1/C=C/C(=O)OCC(=O)NCc1ccco1 | 47% | – |
| COC(=O)C1CC(=O)c2ccsc2C1 (centres undefined) | 6.84% | – |
| O=C(CCn1cccc1)Nc1ccc(OC(F)(F)F)cc1 | -41.8% | – |
| COc1ccccc1N1CCN(C(=O)N2CCOCC2)CC1 | 44.2% | – |

| Compound | activity change, positive = activation | Potency |
| --- | --- | --- |
| Cc1cc(C)c(S(=O)(=O)Nc2ccc3c(c2)CCC3)c(C)c1 | -50.2% | – |
| CN(C)/C=C/C(=O)/C=C/c1ccc(Cl)cc1Cl | – | active: 20 µM |
| CCC(=O)Nc1cc(C(=O)OCC(=O)c2ccccc2)ccc1C | 84.7% | – |
| Cc1cc(C)n2nc(CCCO)nc2n1 | 34.3% | – |
| CC1CC/C(=C\c2ccc3c(c2)OCO3)C(=O)/C1=C/c1ccc2c(c1)OCO2 (centres undefined) | inactive: -86.1% | – |
| O=C(NCCc1csc(-c2ccccc2)n1)c1c(F)cccc1F | inactive: -66.3% | – |
| N#CCC(=O)c1sccc1-n1cccc1 | 30.1% | – |
| c1ccc(-c2noc(-c3cccc4ccccc34)n2)cc1 | – | active: 11.2 µM |
| CN1CCN(C(=S)c2ccc(-c3cccc(Cl)c3Cl)o2)CC1 | 66.1% | – |
| CCOC(=O)C1CCCN(Cc2cc(Br)ccc2OC)C1 (centres undefined) | 49.2% | – |
| C=C(C)CNC(=O)CCc1nnc(Cc2cccc(C(F)(F)F)c2)o1 | – | active: 11.2 µM |
| C=CCn1c(CNC(=O)c2cccs2)nnc1SCc1ccc(Cl)cc1Cl | -30.3% | – |
| FC(F)(F)c1cc(-c2ccccc2)nc(N2CCCCC2)n1 | 32.4% | – |
| CN1/C(=C/C=N/NC(=O)c2ccc([N+](=O)[O-])cc2)C(C)(C)c2ccccc21 | -74.1% | – |
| Cc1cc(C)cc(NS(=O)(=O)c2ccc3c(c2)c(=O)n(C)c(=O)n3C)c1 | -62.5% | – |
| O=[N+]([O-])c1ccc(-c2nc3ccc([N+](=O)[O-])cc3[nH]2)cc1 | -58.3% | – |
| Cc1nccc2[nH]c(=O)c(C(=O)NC3CCCCC3C)cc12 (centres undefined) | – | active: 12.6 µM |
| O=C(NCc1ccccn1)c1cccc(NS(=O)(=O)c2cccc(Cl)c2)c1 | inactive: 12.6% | – |
| CC(=O)CCC(=O)NCCc1ccccc1F | 37.4% | – |
| CCn1c(=O)n(CC)c2cc(S(=O)(=O)Nc3cc(C)cc(C)c3C#N)ccc21 | 25.2% | – |
| CCC(/C=C1\Sc2ccc(OC)cc2N1CC)=C\c1sc2ccc(OC)cc2[n+]1CCCS(=O)(=O)[O-] | -107% | – |
